Test results published in PubChem BioAssay AID2551 (National Center for Advancing Translational Sciences (NCATS), 2010).
Screen size: about 310,000 compounds; about 17,000 (5.5%) were called active. The shares of active, inactive and inconclusive entries below differ from those in the screen. The call rests on the fitted dose curve; in most records, active means well fitted inhibition curve with a large enough effect; inconclusive means small, poorly fitted or top-dose-only effect, or effect the other way; inactive means no such curve, though single readings can be large or run the other way. A potency beside an inconclusive call is a rough fit, not a confirmed value.

By UniProt entry, the sequences of proteins in these tests, tags left out. Where a name states a change or a piece, a line headed by the entry shows the natural chain unless it says otherwise.
UniProt P51450: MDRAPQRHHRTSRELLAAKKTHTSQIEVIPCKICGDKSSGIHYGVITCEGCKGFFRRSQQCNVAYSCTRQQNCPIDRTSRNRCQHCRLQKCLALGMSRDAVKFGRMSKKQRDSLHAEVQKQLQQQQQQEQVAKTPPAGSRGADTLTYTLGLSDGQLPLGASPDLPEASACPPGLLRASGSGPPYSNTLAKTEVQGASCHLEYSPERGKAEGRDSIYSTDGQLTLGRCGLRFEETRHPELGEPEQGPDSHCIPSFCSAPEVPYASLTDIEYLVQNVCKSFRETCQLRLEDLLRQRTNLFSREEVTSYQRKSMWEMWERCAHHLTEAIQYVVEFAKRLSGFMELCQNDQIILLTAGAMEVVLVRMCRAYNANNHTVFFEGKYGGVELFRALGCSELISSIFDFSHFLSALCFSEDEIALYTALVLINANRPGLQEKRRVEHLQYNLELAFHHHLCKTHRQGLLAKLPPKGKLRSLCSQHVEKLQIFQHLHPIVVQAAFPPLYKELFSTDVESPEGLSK

Molecular target: Nuclear receptor ROR-gamma (Mus musculus) (UniProt P51450)
Assay: qHTS for inhibitors of ROR gamma transcriptional activity; further: nearly all actives have a fitted effect of over 60% in size
Conditions: Drosophila S2 Gal4-RORgamma UAS-luciferase reporter, 20 h; activity change, negative = inhibition: at 53.6 µM (top of the series)
Procedure, shortened: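 Schneider cells (Drosophila), stable Gal4 DBD–ROR gamma + UAS-luc; 1 hr cmpd preincubation; Cu2+ induction 700 uM final; 20 hr ambient; luminescence.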
On the % scale 0 is the no-effect control and ±100 the full control effect; potency means the concentration at half of the fitted maximal effect.

| SMILES | Potency | activity change, negative = inhibition |
| --- | --- | --- |
| O=C(COC(=O)C12CC3CC(CC(C3)C1)C2)Nc1ccc([N+](=O)[O-])cc1Br | inactive |  |
| CCCCNC(=O)/C(C#N)=C/c1ccc(F)cc1F | inconclusive: 28.2 µM [inhibitor, single point] |  |
| CCOC(=O)C1CCN(C(=O)c2cc3cc4ccc(C)cc4nc3o2)CC1 | inconclusive: 35.5 µM [inhibitor, single point] |  |
| CCOC(=O)c1cnc2ccc(F)cc2c1Nc1ccc2c(c1)OCCO2 | inconclusive: 5.01 µM [inhibitor, partial curve] |  |
| Cc1nn2c(NCc3ccccn3)c3c(nc2c1-c1ccccc1)CCC3 | active: 0.1 µM |  |
| C1=C(CN2CCOCC2)COc2c1cccc2OC[C@@H]1CNCCO1 | inactive |  |
| Cc1nccn1Cc1cccc2ccccc12 | inconclusive: 35.5 µM [inhibitor, single point] |  |
| COc1ccc(CCNC(=O)CCn2c(=O)c3cccn3c3ccc(F)cc32)c(OC)c1OC | inactive |  |
| C/C(NC(=O)c1ccccc1)=C1/C(=O)CC2C1C2(C)C (centres undefined) | inactive |  |
| Cc1ccc(C)c(NC(=O)NC2CCCCCCC2)c1 | inactive |  |
| Cc1cccc(CC2S/C(=N/N=C/c3ccco3)NC2=O)c1 (centres undefined) | active: 0.891 µM |  |
| CC(C)(C)c1ccc(N2C(=O)Cc3c2nc(N)c(C#N)c3N)cc1 | inconclusive: 12.6 µM [activator, partial curve, poor fit] |  |
| COc1ccccc1N1CCN(C(=O)c2nn(-c3ccccc3OC)c(=O)c3ccccc23)CC1 | inconclusive: 10 µM [activator, partial curve, poor fit] |  |
| O=C(NNC(=S)NC(=O)c1cn(-c2ccccc2)nc1-c1ccccc1)c1ccncc1 | active: 2.82 µM |  |
| CC(C)(C)c1ccc(C(=O)NC(=S)N2CCOCC2)cc1 | active: 1.12 µM |  |
| COc1ccc(N(CC(=O)NC(C)c2ccccc2)S(=O)(=O)c2c(C)noc2C)cc1 (centres undefined) | inactive |  |
| COc1ccc(S(=O)(=O)N(CC(=O)NCc2ccccn2)c2ccc(Cl)cc2)cc1 | inconclusive: 20 µM [inhibitor, single point] |  |
| CC(=O)Nc1nc(C)c(-c2nc3ccc([N+](=O)[O-])cc3[nH]2)s1 | inconclusive: 17.8 µM [activator, partial curve] |  |
| COc1cc2c3c(c1)C1(C(=O)N3C(C)(C)C=C2C)C(C#N)=C(N)Oc2cc(C)oc(=O)c21 (centres undefined) | inconclusive: 10 µM [activator, partial curve] |  |
| COc1ccccc1C1c2ccc3ccccc3c2Oc2ncn(CCN(C)C)c(=N)c21 (centres undefined) | active: 10 µM |  |
| Cc1ccc(NC(=O)c2ccc(Cl)c(NC(=O)c3cccs3)c2)cc1 | inactive |  |
| CCOC(=O)c1c(C)[nH]c(N=Nc2ccccc2)c1C | inconclusive: 22.4 µM [inhibitor, single point] |  |
| Cc1ccc(C)c(N2C(=O)c3cc(N4CCOCC4)c([N+](=O)[O-])cc3C2=O)c1 | inconclusive: 20 µM [activator, single point] |  |

| SMILES | Potency | activity change, negative = inhibition |
| --- | --- | --- |
| COc1ccc(Cc2nc3ccccc3n2C)cc1 | inconclusive: 3.55 µM [inhibitor, partial curve, poor fit] |  |
| O=C(NCCN1CCOCC1)c1ccc2c(c1)N(Cc1ccccc1F)C(=O)c1ccccc1S2 | inactive |  |
| Cc1c(N=C/C=C2/N(C)c3ccccc3C2(C)C)c(=O)n(-c2ccccc2)n1C | inconclusive: 14.1 µM [activator, single point] |  |
| CCc1cc(CNC(=O)c2cc(COc3ccc(C)nc3)on2)on1 | inconclusive: 15.8 µM [activator, partial curve] |  |
| CCC(=O)NC(c1ccccc1)c1c(O)ccc2ccccc12 (centres undefined) | inactive |  |
| Cc1nn(-c2ccccc2)c(Cl)c1C(=O)Nc1nnc(C2CCCCC2)s1 | active: 12.6 µM |  |
| Cc1cc(S(=O)(=O)Cc2noc(-c3c(C)noc3C)n2)c(C)cc1Cl | inconclusive: 4.47 µM [activator, partial curve] |  |
| Cc1c(N=NC2=C(O)CC(C)(C)CC2=O)c(=O)n(-c2ccccc2)n1C | inactive |  |
| Cc1ccc(OCCCC(=O)N2CCOCC2)c(C)c1 | inconclusive: 0.316 µM [activator, full curve, poor fit] |  |
| O=C(COC(=O)c1cccc(NS(=O)(=O)/C=C/c2ccccc2)c1)Nc1ccccc1OC(F)F | inactive |  |
| Cc1ccc2[nH]c3nc(N/N=C/c4cccc(O)c4)nnc3c2c1 | inactive |  |
| COc1ccc(CNC(=O)CCNC(=O)N2CCn3c2nc2ccccc23)cc1 | inactive |  |
| COc1ccc(/C=N/n2c(-c3cccs3)n[nH]c2=S)cc1 | active: 2.82 µM |  |
| Cc1cc(C(=O)N/N=C/c2cc(Br)ccc2OC(=O)c2ccccc2)n[nH]1 | inconclusive: 10 µM [inhibitor, partial curve, poor fit] |  |
| CCCc1nc2ccccc2c(C(=O)OCC(=O)N2CCc3ccccc32)c1CC | inactive |  |
| CCOc1ccc(-n2c(C)cc(C(=O)CCl)c2C)cc1 | inconclusive: 12.6 µM [inhibitor, single point] |  |
| Cc1nnc(N/N=C/c2cccc(OCc3ccc(Cl)c(Cl)c3)c2)n1N | inconclusive: 35.5 µM [inhibitor, single point] |  |
| CCn1c2ccccc2c2cc(C3C(C#N)=C(N)Oc4n[nH]c(COC)c43)ccc21 (centres undefined) | inconclusive: 12.6 µM [inhibitor, partial curve, poor fit] |  |
| N#Cc1cc(Oc2cccc3cccnc23)c(-n2nnc3ccccc32)cc1C#N | inconclusive: 20 µM [inhibitor, single point] |  |
| CN1CC(c2ccccc2)C2(SC(=S)N(Cc3ccco3)C2=O)C12C(=O)Nc1ccccc12 (centres undefined) | inconclusive: 20 µM [inhibitor, partial curve] |  |
| CC1Sc2ccc(S(=O)(=O)N3CCC(C(=O)NCc4ccc(Cl)cc4)CC3)cc2NC1=O (centres undefined) | inconclusive: 35.5 µM [activator, single point] |  |
| CC(NC(=O)COC(=O)/C=C/c1ccc([N+](=O)[O-])cc1)c1ccccc1 (centres undefined) |  | inactive: 2.35% [at 10 µM] |
| N#CC1=C(N)Oc2c(O)cc3ccccc3c2C1c1ccsc1 (centres undefined) | inconclusive: 22.4 µM [inhibitor, single point] |  |

Taken from above.
CCC(=O)NC(c1ccccc1)c1c(O)ccc2ccccc12 (centres undefined) – Potency: inactive
Cc1ccc(OCCCC(=O)N2CCOCC2)c(C)c1 – Potency: inconclusive: 0.316 µM [activator, full curve, poor fit]
Cc1cc(S(=O)(=O)Cc2noc(-c3c(C)noc3C)n2)c(C)cc1Cl – Potency: inconclusive: 4.47 µM [activator, partial curve]

Remaining list, next part:

| SMILES | Potency | activity change, negative = inhibition |
| --- | --- | --- |
| COCCNC(=S)N1CCc2cc(OC)c(OC)cc2C1COc1cc(C)cc(C)c1 (centres undefined) | inconclusive: 20 µM [inhibitor, single point] |  |
| CCc1ccccc1N(CC(=O)NC(C)(C)CC)C(=O)CCC(=O)Nc1nccs1 | inconclusive: 35.5 µM [activator, single point] |  |
| COc1ccccc1/C=C/C(=O)NC(=S)N(C)C1CCCCC1 | inconclusive: 35.5 µM [inhibitor, partial curve, poor fit] |  |
| COc1cc(/C=N/NC(=O)c2ccc(O)cc2)ccc1Oc1ccc([N+](=O)[O-])cn1 | inconclusive: 6.31 µM [activator, single point] |  |
| CC(C)c1nc(SCC(=O)N2CCCCCC2)c2c(=O)n(C)c(=O)n(C)c2n1 | inactive |  |
| O=C(Cc1c(F)c(F)c(F)c(F)c1F)Nc1nc(-c2ccccc2)cs1 | inconclusive: 12.6 µM [activator, partial curve] |  |
| CCCCn1c(-c2nonc2N)nc2ccccc21 | inconclusive: 6.31 µM [inhibitor, partial curve] |  |
| Cc1ccc2c(c1)[nH]c1c(N3CCN(Cc4ccccc4)CC3)ncnc12 | inconclusive: 0.562 µM [inhibitor, single point] |  |
| CC(C)N=c1c([N+](=O)[O-])nn(C)n1O | inconclusive: 35.5 µM [inhibitor, single point] |  |
| CC(C)CN(C(=O)CN1CCN(c2ccc([N+](=O)[O-])cc2)CC1)c1c(N)n(CC(C)C)c(=O)[nH]c1=O | inactive |  |
| Cc1nc2ccc(NC(=O)c3cccc(C(F)(F)F)c3)cc2o1 | inconclusive: 0.891 µM [activator, full curve, poor fit] |  |
| Cc1ccccc1NC1=NC(=S)N(c2ccccc2)C12CCOC(C)(C)C2 (centres undefined) | active: 6.31 µM |  |
| COC(=O)c1ccc(CN2C(=O)C3CCCCC3C2=O)o1 (centres undefined) | active: 2.82 µM |  |
| CN(C)c1ccc(/C=C/c2ccc3c4ccccc4ccc3[n+]2-c2ccccc2)cc1 | active: 1.41 µM |  |
| COCCn1c(-c2ccccc2)nc2oc3ccccc3c(=O)c2c1=O | inconclusive: 5.62 µM [inhibitor, single point] |  |
| CC(=O)c1sc(N/N=C\c2cccc(Br)c2)nc1C | inconclusive: 20 µM [inhibitor, single point] |  |
| CC(=O)CSc1cc(C)nc2c(-c3ccccc3)c(C)nn12 | inconclusive: 2.82 µM [inhibitor, full curve, poor fit] |  |
| COc1c(Cl)cc(Cl)cc1C(=O)n1nc(C)cc1C | inconclusive: 17.8 µM [activator, single point] |  |
| CN(c1cccc(NC(=O)CN(c2ccc(C34CC5CC(CC(C5)C3)C4)cc2)S(C)(=O)=O)c1)S(C)(=O)=O | inconclusive: 25.1 µM [activator, single point] |  |
| CC1CCN(c2c(NCc3ccc(C(=O)N4CCc5ccccc54)cc3)c(=O)c2=O)CC1 | inconclusive: 11.2 µM [inhibitor, single point] |  |
| COc1cc(C(=O)NNC(=S)NC(=O)c2ccccc2C)cc(OC)c1OC | inconclusive: 12.6 µM [inhibitor, single point] |  |
| Cc1cc(SCC(=O)N/N=C/c2ccco2)nc2ccccc12 | inactive |  |
| Cc1[nH]c2ccccc2c1C(c1ccncc1)N1CCN(c2ccccn2)CC1 (centres undefined) | inconclusive: 15.8 µM [inhibitor, single point] |  |
